Entries after “also recorded” stand apart in the source; their conditions may differ.
Columns and labels:
Male Long-Evans rats [1] = assay: Naloxone-precipitated conditioned place aversion (CPA) in chronic oxycodone-treated rats; format: in vivo, rat; details: naloxone 1 mg/kg; for CPP or CPA from conditioning alone in chronically saline-treated rats: compound 15 mg/kg
Description: Naloxone-precipitated CPA was tested in a place-conditioning apparatus (Med Associates, St Albans, Vt.) consisting of two side compartments (21 cm×28 cm) and a central gray connecting area (21 cm×12.5 cm); a sliding door separated each compartment from the connecting area. The two side compartments differed in wall color (black vs white), floor type (stainless steel net vs stainless steel grid), and illumination. Before the experiment started, all the animals were allowed to explore the conditioning apparatus for 15 min (preconditioning).
Six groups (n=8/group) of rats were involved in this test, 3 groups were chronically treated with oxycodone (3 mg/kg, i.p.) and the other 3 with saline (1 ml/kg), twice daily (800 and 1800 h). Four hours following the morning injection on Day 4 and 6, the oxycodone treated rats were challenged with saline and immediately confined in one side compartment of the conditioning box for 30 min, while on Day 5 and 7, they were first pretreated with either vehicle or 1 of 2 doses of compound (±)-29 (5 and 15 mg/kg, i.p.) 3 h after morning oxycodone injection, and 1 h later, challenged with naloxone (1 mg/kg, i.p.). The rats were then immediately confined in the other side compartment for 30 min. The side compartments for saline or naloxone conditioning were counterbalanced in each group. Place conditioning procedures for chronically saline treated groups were the same as for oxycodone treated groups on Day 4 and 6, but on Day 5 and 7, these 3 groups were challenged with either naloxone, vehicle or compound (±)-29 (15 mg/kg) at the same time point assigned for oxycodone treated groups (FIG. 4A). Twenty-four hours after the last conditioning session, the animals were each placed in the same apparatus and allowed to explore the apparatus for an additional 15 min. The time that animals spent in each compartment was recorded. The CPA score was calculated as the time difference (seconds) that animal spent in drug-paired versus saline-paired compartment.

Male Long-Evans rats [2] = assay: Oral sucrose self-administration; format: in vivo, rat

| Compound | CPP or CPA from conditioning alone in chronically saline-treated rats (Male Long-Evans rats [1]) | sucrose self-administration (Male Long-Evans rats [2]; 15-25 mg/kg, i.p.) | time required to reach the maximal sucrose deliveries vs vehicle (Male Long-Evans rats [2]; 15-25 mg/kg, i.p.) | time to reach the capped number of sucrose deliveries (Male Long-Evans rats [2]; most rats pretreated with compound) | CPA in vehicle-pretreated rats chronically treated with 3 mg/kg oxycodone (Male Long-Evans rats [1]; i.p., 2 conditioning sessions) |
| --- | --- | --- | --- | --- | --- |
| CCc1cc(Cl)c(OC)c(N2CCN(CC(O)CCNC(=O)c3cc4ccccc4[nH]3)CC2)c1 (racemic) [Compound 29, N-(4-(4-(3-chloro-5-ethyl-2-methoxyphenyl)piperazin-1-yl)-3-hydroxybutyl)-1H-indole-2-carboxamide] | neither CPP or CPA | did not significantly alter sucrose self-administration; also recorded: had no effect on oral sucrose self-administration | significantly longer | approximately 1 h | – |
| C=CCN1CC[C@]23c4c5ccc(O)c4O[C@H]2C(=O)CC[C@@]3(O)[C@H]1C5 [naloxone, reference compound] | neither CPP or CPA | – | – | – | induced a significant CPA |

— patent US11337971B2, “Dopamine D3 receptor selective antagonists/partial agonists and uses thereof” (THE UNITED STATES OF AMERICA, AS REPRESENTED BY THE …, priority 2018, dated 2022)
